Laboratory results reported in patent US9127024B2 (Intrexon Corporation, priority 2013, dated 2015).

Protein sequences, listed by entry. Tags and fused reporters are not part of them. Residues count along the entry.
UniProt O77240, 1-513: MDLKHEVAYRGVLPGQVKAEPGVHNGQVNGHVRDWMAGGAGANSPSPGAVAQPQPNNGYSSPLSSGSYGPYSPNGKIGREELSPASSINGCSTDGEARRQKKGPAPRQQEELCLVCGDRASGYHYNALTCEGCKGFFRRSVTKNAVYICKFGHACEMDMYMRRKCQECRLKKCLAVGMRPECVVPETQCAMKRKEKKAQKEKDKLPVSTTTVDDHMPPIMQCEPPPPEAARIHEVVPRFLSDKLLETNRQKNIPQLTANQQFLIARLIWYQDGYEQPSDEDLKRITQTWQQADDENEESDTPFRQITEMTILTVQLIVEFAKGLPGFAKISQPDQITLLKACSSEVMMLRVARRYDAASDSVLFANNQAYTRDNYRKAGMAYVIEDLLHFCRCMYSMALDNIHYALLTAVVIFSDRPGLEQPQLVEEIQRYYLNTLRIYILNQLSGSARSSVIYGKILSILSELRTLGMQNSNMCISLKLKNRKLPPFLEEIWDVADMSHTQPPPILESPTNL

Target: RheoSwitch® (CHO-K1_RS-1 cells, firefly Luciferase reporter) (Choristoneura fumiferana, UniProt O77240)
Experiment: in vitro gene switch assay (fLUC Luciferase expression, potency screen)
Format: cell-based
Conditions: read-out: fLUC assay EC50, 24 hours with compound, 25 μM to 2.5 pM, figure in parentheses after a value not defined
Method: Representative Compounds of the Disclosure were tested for biological activity in an in vitro gene switch assay (Tables 1 and 1A). Gene switch assays are disclosed, e.g., in U.S. Pat. Nos. 8,076,517; 7,456,315; 7,304,161; and 6,258,603.
CHO-K1 cells were stably transfected with a plasmid (RS-1, FIG. 1) coding for firefly Luciferase (fLUC) under the control of the RheoSwitch® resulting in the stable cell line CHO-K1_RS-1. A master cell bank was created containing approximately 100 vials at 5×10^6 cells per vial. One vial of CHO-K1_RS-1 was thawed and cultured for two weeks prior to each in vitro potency screening.
Twenty-four (24) hours prior to treatment with the control and test compounds the CHO-K1_RS-1 cells were seeded into white-opaque 384-well cell culture plates at 3,600 cells per well in 30 μl of culture medium. The cells were incubated in a humidified CO2 incubator at 37° C. until compound treatment.
Compounds were prepared at 25 mM in 100% dry DMSO and stored at room temperature in sealed 1 ml tubes prior to subsequent dilution and assay. […]
The cells were incubated with the compound for 24 hours in a humidified CO2 incubator at 37° C. […] The reagent was incubated with the cells for 10-120 minutes prior to reading on a Molecular Devices Spectramax L luminometer. […]

Structure (SMILES): Cc1cc(C)cc(C(=O)N(NC(=O)c2ccc3c(c2C)OCCOB3O)C(C)C)c1
- EC50: 7.4 µM and > 25 µM

Not every entry of the source has a single result; some have several. This is not the full list of results. There may be further records. The values listed for one entry differ for a reason that is not stated; some may be repeats, others may stem from another dose, organism or construct than stated.
